The other results are listed elsewhere or left out.
Legend:
Assay in all cases: log2 fold change, soluble protein after heating vs DMSO (PISA); higher = thermal stabilisation; K562 lysate, 10 uM; active = over 0.2 and 3.5 SD of the protein, either way, in both replicates (recomputed)
[1] = compound: NCC(=O)Nc1ccc(-n2nc(C(F)(F)F)cc2-c2ccc3c(ccc4ccccc43)c2)cc1
How it was run: (§1)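 Soluble protein was defined as the supernatant remaining after 21,000xg for 90 min, following pooling of heated aliquots and adjustment to 0.5% NP-40 at 4°C. Before that, crude K562 extract at 1 mg/mL protein in PBS pH 7.4 with 1 mM MgCl2 was treated with 10 μM compound for 30 min and heated for 3 min across 48°C-58°C. Quantification used TMTpro 16plex LC-MS/MS with channel sums equalised, and values are log-two fold changes in thermal stability relative to solvent controls from duplicates.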

Amino acid sequences for entries named in this document (tags omitted). A change or cut given only in a name is not applied to a line headed by its entry.
UniProt O75821, whole entry, looked up: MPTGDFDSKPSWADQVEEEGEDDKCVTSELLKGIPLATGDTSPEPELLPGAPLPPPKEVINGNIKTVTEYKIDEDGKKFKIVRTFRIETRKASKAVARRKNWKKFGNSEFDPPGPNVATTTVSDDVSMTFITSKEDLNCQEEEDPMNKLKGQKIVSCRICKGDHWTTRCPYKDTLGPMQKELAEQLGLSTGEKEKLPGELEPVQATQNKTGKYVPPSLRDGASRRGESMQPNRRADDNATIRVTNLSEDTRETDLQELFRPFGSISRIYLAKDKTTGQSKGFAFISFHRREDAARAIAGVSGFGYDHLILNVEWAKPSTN
UniProt Q15369, whole entry, looked up: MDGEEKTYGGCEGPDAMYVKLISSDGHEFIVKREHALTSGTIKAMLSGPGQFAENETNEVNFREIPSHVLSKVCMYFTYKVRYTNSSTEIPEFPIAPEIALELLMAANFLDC
UniProt P19447: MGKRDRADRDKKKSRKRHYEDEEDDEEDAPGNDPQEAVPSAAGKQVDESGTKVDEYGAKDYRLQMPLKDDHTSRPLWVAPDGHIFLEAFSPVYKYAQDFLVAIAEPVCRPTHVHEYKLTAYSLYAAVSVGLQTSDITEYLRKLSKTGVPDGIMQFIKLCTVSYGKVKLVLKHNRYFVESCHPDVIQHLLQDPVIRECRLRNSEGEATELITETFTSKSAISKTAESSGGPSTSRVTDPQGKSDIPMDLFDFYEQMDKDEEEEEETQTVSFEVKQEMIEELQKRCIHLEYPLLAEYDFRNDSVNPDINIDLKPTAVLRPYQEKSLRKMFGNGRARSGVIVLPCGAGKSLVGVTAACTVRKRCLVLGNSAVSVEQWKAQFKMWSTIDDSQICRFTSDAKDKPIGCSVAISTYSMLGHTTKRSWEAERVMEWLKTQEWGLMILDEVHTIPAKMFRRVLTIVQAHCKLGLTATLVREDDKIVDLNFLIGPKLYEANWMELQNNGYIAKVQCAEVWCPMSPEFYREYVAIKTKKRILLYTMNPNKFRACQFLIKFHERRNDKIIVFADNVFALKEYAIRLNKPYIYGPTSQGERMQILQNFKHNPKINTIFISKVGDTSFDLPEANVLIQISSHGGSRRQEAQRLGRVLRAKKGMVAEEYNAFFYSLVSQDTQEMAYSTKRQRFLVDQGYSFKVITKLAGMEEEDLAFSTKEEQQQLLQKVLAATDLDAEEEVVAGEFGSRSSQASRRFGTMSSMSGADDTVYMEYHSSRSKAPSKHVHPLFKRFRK
UniProt P28715: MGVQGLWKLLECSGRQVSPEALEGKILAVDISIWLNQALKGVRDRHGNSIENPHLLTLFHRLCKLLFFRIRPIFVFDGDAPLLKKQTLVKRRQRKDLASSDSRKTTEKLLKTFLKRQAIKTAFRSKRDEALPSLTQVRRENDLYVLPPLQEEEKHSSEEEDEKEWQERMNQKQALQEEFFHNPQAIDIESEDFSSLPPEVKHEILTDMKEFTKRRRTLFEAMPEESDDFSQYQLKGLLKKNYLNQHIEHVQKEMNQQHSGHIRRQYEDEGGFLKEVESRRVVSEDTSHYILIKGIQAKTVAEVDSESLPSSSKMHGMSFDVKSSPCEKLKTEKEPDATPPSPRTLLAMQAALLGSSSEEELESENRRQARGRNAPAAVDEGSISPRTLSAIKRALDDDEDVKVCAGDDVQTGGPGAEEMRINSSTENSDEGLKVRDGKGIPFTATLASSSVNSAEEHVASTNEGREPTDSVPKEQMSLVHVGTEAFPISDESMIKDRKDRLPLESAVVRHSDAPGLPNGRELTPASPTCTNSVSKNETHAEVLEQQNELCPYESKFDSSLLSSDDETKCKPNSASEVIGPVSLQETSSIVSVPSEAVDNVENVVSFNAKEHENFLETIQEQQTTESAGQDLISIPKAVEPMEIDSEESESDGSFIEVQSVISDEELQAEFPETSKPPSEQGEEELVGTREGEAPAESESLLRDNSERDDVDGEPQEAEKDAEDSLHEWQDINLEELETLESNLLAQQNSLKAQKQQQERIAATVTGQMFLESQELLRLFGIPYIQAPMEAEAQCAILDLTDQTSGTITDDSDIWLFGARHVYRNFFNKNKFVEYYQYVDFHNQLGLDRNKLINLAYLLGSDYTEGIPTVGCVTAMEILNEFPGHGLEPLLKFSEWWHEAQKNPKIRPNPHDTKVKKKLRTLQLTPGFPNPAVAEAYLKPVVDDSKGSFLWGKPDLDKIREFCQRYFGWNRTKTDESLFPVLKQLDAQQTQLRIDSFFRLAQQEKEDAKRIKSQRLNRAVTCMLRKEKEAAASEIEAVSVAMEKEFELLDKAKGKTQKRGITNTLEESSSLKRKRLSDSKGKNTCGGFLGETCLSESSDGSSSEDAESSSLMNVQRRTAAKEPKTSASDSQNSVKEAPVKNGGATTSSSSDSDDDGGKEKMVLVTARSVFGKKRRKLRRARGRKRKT
UniProt P09104, whole entry, looked up: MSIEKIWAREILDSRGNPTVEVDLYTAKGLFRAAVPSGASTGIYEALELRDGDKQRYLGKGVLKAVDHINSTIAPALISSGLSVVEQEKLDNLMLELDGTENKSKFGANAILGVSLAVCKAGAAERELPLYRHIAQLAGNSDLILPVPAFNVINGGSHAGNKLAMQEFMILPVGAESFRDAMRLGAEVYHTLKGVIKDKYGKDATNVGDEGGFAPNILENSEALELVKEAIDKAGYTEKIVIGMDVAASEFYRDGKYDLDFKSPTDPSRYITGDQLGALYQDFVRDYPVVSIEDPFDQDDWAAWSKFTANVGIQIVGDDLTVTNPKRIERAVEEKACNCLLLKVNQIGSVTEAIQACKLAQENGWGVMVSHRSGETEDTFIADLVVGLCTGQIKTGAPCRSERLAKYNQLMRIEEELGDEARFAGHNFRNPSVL
UniProt P16422: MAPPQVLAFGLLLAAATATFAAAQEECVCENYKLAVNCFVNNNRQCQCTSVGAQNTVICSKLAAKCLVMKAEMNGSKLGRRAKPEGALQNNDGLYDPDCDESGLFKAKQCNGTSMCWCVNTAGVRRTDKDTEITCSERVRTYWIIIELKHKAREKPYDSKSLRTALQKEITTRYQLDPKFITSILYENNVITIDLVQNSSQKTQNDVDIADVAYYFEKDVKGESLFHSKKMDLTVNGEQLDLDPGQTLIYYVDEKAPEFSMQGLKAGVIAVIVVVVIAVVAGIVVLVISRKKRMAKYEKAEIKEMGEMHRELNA
UniProt Q2NKX8: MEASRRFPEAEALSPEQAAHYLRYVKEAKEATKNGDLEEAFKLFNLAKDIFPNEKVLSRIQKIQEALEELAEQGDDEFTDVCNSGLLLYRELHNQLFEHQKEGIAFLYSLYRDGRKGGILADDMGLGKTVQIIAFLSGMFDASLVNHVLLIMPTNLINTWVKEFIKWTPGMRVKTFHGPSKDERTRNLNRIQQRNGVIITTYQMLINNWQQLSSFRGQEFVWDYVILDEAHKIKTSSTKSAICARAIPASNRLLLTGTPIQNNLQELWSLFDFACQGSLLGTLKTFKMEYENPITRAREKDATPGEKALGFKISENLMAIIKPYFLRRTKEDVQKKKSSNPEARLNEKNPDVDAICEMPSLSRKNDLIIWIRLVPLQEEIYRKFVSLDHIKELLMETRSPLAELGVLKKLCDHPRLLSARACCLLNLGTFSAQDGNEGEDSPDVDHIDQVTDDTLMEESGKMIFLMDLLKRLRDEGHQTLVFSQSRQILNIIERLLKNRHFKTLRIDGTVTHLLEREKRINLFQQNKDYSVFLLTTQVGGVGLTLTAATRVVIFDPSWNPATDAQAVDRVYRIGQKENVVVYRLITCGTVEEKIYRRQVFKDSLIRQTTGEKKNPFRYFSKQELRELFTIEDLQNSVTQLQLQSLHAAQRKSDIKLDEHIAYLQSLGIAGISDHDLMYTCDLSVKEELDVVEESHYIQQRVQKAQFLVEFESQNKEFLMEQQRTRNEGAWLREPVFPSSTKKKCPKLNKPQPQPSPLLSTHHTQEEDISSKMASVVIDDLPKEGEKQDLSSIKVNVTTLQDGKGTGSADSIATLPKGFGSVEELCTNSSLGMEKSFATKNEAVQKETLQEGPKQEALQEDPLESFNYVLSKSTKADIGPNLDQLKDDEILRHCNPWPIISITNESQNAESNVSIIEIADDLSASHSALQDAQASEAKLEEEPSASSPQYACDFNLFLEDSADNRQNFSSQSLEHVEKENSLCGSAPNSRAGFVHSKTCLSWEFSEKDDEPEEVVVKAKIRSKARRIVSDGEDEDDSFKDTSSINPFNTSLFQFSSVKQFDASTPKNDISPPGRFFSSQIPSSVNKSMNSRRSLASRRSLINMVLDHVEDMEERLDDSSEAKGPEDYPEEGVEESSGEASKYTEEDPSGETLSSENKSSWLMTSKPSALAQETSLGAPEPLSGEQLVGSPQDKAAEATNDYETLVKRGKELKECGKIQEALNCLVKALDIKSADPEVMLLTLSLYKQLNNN
UniProt Q5NDL2: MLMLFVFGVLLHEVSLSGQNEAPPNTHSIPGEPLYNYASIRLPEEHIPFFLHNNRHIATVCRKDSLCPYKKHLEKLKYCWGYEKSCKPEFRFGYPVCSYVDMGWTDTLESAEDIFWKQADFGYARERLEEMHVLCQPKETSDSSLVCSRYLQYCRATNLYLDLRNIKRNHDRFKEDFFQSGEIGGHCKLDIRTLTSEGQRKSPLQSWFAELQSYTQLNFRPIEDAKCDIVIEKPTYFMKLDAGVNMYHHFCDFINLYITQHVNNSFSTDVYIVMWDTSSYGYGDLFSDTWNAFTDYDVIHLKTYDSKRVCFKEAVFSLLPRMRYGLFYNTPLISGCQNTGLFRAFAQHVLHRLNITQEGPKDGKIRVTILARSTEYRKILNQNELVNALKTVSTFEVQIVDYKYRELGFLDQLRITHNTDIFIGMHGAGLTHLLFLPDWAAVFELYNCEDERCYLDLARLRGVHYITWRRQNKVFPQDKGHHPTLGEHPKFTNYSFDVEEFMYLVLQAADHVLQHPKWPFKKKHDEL
UniProt Q14240, whole entry, looked up: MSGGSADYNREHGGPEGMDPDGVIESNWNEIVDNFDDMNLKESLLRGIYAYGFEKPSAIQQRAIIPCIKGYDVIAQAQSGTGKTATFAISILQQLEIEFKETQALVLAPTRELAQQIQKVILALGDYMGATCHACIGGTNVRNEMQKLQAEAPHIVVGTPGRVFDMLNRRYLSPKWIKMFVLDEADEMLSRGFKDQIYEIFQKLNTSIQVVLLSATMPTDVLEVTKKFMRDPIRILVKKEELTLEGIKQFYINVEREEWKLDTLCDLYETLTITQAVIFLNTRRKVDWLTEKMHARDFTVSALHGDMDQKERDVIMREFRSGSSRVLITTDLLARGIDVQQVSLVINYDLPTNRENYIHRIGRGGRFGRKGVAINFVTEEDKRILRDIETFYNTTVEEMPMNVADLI
UniProt Q8N5X7: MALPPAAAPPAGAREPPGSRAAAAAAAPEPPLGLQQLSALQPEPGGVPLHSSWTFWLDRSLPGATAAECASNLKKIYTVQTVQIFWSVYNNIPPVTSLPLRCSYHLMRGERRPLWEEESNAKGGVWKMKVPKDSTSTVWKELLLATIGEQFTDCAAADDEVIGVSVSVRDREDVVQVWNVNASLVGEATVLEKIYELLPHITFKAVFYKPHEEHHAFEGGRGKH
UniProt P78344: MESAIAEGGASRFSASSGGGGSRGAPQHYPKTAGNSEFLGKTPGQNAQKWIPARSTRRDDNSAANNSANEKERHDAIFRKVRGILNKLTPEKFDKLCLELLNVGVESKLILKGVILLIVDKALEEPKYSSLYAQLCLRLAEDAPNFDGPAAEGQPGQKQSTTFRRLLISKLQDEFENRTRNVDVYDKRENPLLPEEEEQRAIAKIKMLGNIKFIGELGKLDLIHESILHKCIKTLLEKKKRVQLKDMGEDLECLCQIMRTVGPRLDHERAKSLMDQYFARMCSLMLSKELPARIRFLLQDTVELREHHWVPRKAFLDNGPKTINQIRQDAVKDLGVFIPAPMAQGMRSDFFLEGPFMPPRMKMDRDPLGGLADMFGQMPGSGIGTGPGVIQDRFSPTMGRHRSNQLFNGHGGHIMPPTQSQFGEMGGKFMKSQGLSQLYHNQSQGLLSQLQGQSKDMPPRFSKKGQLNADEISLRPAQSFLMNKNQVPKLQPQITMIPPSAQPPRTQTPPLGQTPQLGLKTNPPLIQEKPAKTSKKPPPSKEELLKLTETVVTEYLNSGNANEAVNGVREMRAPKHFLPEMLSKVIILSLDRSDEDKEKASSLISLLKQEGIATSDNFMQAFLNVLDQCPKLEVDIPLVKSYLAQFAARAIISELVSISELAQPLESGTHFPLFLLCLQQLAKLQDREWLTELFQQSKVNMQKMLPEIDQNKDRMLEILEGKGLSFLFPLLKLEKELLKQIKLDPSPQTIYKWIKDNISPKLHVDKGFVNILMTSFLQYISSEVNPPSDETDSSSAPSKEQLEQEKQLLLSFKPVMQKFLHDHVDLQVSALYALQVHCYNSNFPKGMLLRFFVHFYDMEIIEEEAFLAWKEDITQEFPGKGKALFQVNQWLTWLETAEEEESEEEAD

vorinostat = compound: O=C(CCCCCCC(=O)Nc1ccccc1)NO [vorinostat]
How it was run: as §1

silmitasertib = compound: O=C(O)c1ccc2c(c1)nc(Nc1cccc(Cl)c1)c1ccncc12 [silmitasertib]
How it was run: as §1

[2] = compound: O=C1NC(=O)C(c2cnc3ccccn23)=C1c1cn2c3c(cc(F)cc13)CN(C(=O)N1CCCCC1)CC2
How it was run: as §1

entospletinib = compound: c1cn2cc(-c3ccc4cn[nH]c4c3)nc(Nc3ccc(N4CCOCC4)cc3)c2n1 [entospletinib]
How it was run: as §1

Target: EIF3J (UniProt O75822)
- log2 fold change [1]: inactive: 0.017
- log2 fold change (vorinostat): inactive: 0.075
- log2 fold change (silmitasertib): inactive: -0.032
- log2 fold change [2]: inactive: -0.013
- log2 fold change (entospletinib): inactive: -0.007

Target: EIF3F (UniProt O00303)
- log2 fold change [1]: inactive: -0.025
- log2 fold change (vorinostat): inactive: -0.065
- log2 fold change (silmitasertib): inactive: 0.005
- log2 fold change [2]: inactive: -0.053
- log2 fold change (entospletinib): inactive: 0.038

Target: EMC2 (UniProt Q15006)
- log2 fold change [1]: inactive: -0.009
- log2 fold change (vorinostat): inactive: 0.046
- log2 fold change (silmitasertib): inactive: 0.021
- log2 fold change [2]: inactive: -0.029
- log2 fold change (entospletinib): inactive: -0.005

Target: EIF3G (UniProt O75821)
- log2 fold change [1]: inactive: 0.02
- log2 fold change (vorinostat): inactive: -0.103
- log2 fold change (silmitasertib): inactive: -0.021
- log2 fold change [2]: inactive: -0.016
- log2 fold change (entospletinib): inactive: 0.003

Target: ELOC (UniProt Q15369)
- log2 fold change [1]: inactive: -0.061
- log2 fold change (vorinostat): inactive: 0.114
- log2 fold change (silmitasertib): inactive: -0.07
- log2 fold change [2]: inactive: 0.077
- log2 fold change (entospletinib): inactive: 0.039

Target: ERCC3 (UniProt P19447)
- log2 fold change [1]: inactive: 0.027
- log2 fold change (vorinostat): inactive: -0.148
- log2 fold change (silmitasertib): inactive: 0.04
- log2 fold change [2]: inactive: -0.016
- log2 fold change (entospletinib): inactive: -0.006

Target: EPM2AIP1 (UniProt Q7L775)
- log2 fold change [1]: inactive: -0.013
- log2 fold change (vorinostat): inactive: -0.108
- log2 fold change (silmitasertib): inactive: 0.012
- log2 fold change [2]: inactive: -0.014
- log2 fold change (entospletinib): inactive: 0.003

Target: EPPK1 (UniProt P58107)
- log2 fold change [1]: inactive: 0.018
- log2 fold change (vorinostat): inactive: -0.08
- log2 fold change (silmitasertib): inactive: 0
- log2 fold change [2]: inactive: 0.02
- log2 fold change (entospletinib): inactive: 0.015

Target: ERCC5 (UniProt P28715)
- log2 fold change [1]: inactive: 0
- log2 fold change (vorinostat): inactive: -0.017
- log2 fold change (silmitasertib): inactive: 0.044
- log2 fold change [2]: inactive: 0.055
- log2 fold change (entospletinib): inactive: 0.033

Target: EIF4ENIF1 isoform 3 (UniProt Q9NRA8)
- log2 fold change [1]: inactive: 0.032
- log2 fold change (vorinostat): inactive: -0.037
- log2 fold change (silmitasertib): inactive: -0.036
- log2 fold change [2]: inactive: 0.011
- log2 fold change (entospletinib): inactive: -0.024

Target: EMG1 (UniProt Q92979)
- log2 fold change [1]: inactive: 0
- log2 fold change (vorinostat): inactive: -0.107
- log2 fold change (silmitasertib): inactive: 0.04
- log2 fold change [2]: inactive: -0.005
- log2 fold change (entospletinib): inactive: 0.026

Target: ENOSF1 (UniProt Q7L5Y1)
- log2 fold change [1]: inactive: -0.005
- log2 fold change (vorinostat): inactive: 0.115
- log2 fold change (silmitasertib): inactive: 0.005
- log2 fold change [2]: inactive: 0.029
- log2 fold change (entospletinib): inactive: 0.018

Target: ENO2 (UniProt P09104)
- log2 fold change [1]: inactive: -0.021
- log2 fold change (vorinostat): inactive: 0.03
- log2 fold change (silmitasertib): inactive: -0.014
- log2 fold change [2]: inactive: 0.001
- log2 fold change (entospletinib): inactive: -0.068

Target: EIF6 (UniProt P56537)
- log2 fold change [1]: inactive: 0.079
- log2 fold change (vorinostat): inactive: 0.047
- log2 fold change (silmitasertib): inactive: -0.033
- log2 fold change [2]: inactive: -0.003
- log2 fold change (entospletinib): inactive: 0.001

Target: EPCAM (UniProt P16422)
- log2 fold change [1]: inactive: 0.055
- log2 fold change (vorinostat): inactive: 0.095
- log2 fold change (silmitasertib): inactive: 0.006
- log2 fold change [2]: inactive: 0.001
- log2 fold change (entospletinib): inactive: 0.047

Target: ENO1, A0A2R8YEM5
- log2 fold change [1]: inactive: -0.032
- log2 fold change (vorinostat): inactive: 0.119
- log2 fold change (silmitasertib): inactive: -0.005
- log2 fold change [2]: inactive: 0.017
- log2 fold change (entospletinib): inactive: 0.04

Target: ERCC6L (UniProt Q2NKX8)
- log2 fold change [1]: inactive: -0.003
- log2 fold change (vorinostat): inactive: -0.1
- log2 fold change (silmitasertib): inactive: 0.014
- log2 fold change [2]: inactive: -0.028
- log2 fold change (entospletinib): inactive: 0.005

Target: ERCC1 (UniProt P07992)
- log2 fold change [1]: inactive: -0.088
- log2 fold change (vorinostat): inactive: -0.103
- log2 fold change (silmitasertib): inactive: 0.032
- log2 fold change [2]: inactive: 0.084
- log2 fold change (entospletinib): inactive: -0.134

Target: EIF4H isoform 2 (UniProt Q15056)
- log2 fold change [1]: inactive: -0.227
- log2 fold change (vorinostat): inactive: 0.177
- log2 fold change (silmitasertib): inactive: -0.01
- log2 fold change [2]: inactive: 0.082
- log2 fold change (entospletinib): inactive: -0.154

Target: EPHB4 (UniProt P54760)
- log2 fold change [1]: inactive: 0.143
- log2 fold change (vorinostat): inactive: 0.098
- log2 fold change (silmitasertib): inactive: -0.012
- log2 fold change [2]: inactive: -0.127
- log2 fold change (entospletinib): inactive: 0.119

Target: EML3 (UniProt Q32P44)
- log2 fold change [1]: inactive: 0.032
- log2 fold change (vorinostat): inactive: -0.014
- log2 fold change (silmitasertib): inactive: 0.004
- log2 fold change [2]: inactive: -0.027
- log2 fold change (entospletinib): inactive: 0.017

Target: ELP1 (UniProt O95163)
- log2 fold change [1]: inactive: 0.029
- log2 fold change (vorinostat): inactive: -0.029
- log2 fold change (silmitasertib): inactive: 0.022
- log2 fold change [2]: inactive: 0.013
- log2 fold change (entospletinib): inactive: 0.027

Target: EIF3I (UniProt Q13347)
- log2 fold change [1]: inactive: 0.022
- log2 fold change (vorinostat): active: -0.316
- log2 fold change (silmitasertib): inactive: 0.061
- log2 fold change [2]: inactive: -0.005
- log2 fold change (entospletinib): inactive: 0.005

Target: EOGT (UniProt Q5NDL2)
- log2 fold change [1]: inactive: 0.112
- log2 fold change (vorinostat): inactive: 0.104
- log2 fold change (silmitasertib): inactive: 0.055
- log2 fold change [2]: inactive: -0.046
- log2 fold change (entospletinib): inactive: -0.052

Target: EMC8 (UniProt O43402)
- log2 fold change [1]: inactive: 0.027
- log2 fold change (vorinostat): inactive: 0.111
- log2 fold change (silmitasertib): inactive: 0.002
- log2 fold change [2]: inactive: -0.017
- log2 fold change (entospletinib): inactive: 0.006

Target: EMD (UniProt P50402)
- log2 fold change [1]: inactive: 0.075
- log2 fold change (vorinostat): inactive: 0.01
- log2 fold change (silmitasertib): inactive: 0.024
- log2 fold change [2]: inactive: -0.023
- log2 fold change (entospletinib): inactive: -0.005

Target: EIF2AK2 (UniProt P19525)
- log2 fold change [1]: inactive: 0.021
- log2 fold change (vorinostat): active: -0.415
- log2 fold change (silmitasertib): inactive: 0.038
- log2 fold change [2]: inactive: -0.017
- log2 fold change (entospletinib): inactive: 0.068

Target: EIF4A2 isoform 2 (UniProt Q14240)
- log2 fold change [1]: inactive: -0.024
- log2 fold change (vorinostat): inactive: 0.028
- log2 fold change (silmitasertib): inactive: 0.023
- log2 fold change [2]: inactive: -0.022
- log2 fold change (entospletinib): inactive: 0.003

Target: EIF4E3 (UniProt Q8N5X7)
- log2 fold change [1]: inactive: -0.067
- log2 fold change (vorinostat): inactive: 0.04
- log2 fold change (silmitasertib): inactive: 0.377
- log2 fold change [2]: inactive: -0.005
- log2 fold change (entospletinib): inactive: 0.044

Target: EIF3H (UniProt O15372)
- log2 fold change [1]: inactive: 0.001
- log2 fold change (vorinostat): inactive: 0.022
- log2 fold change (silmitasertib): inactive: 0.009
- log2 fold change [2]: inactive: -0.011
- log2 fold change (entospletinib): inactive: 0.014

Target: EIF3G (UniProt K7ER90)
- log2 fold change [1]: inactive: 0.024
- log2 fold change (vorinostat): inactive: -0.17
- log2 fold change (silmitasertib): inactive: 0.057
- log2 fold change [2]: inactive: -0.086
- log2 fold change (entospletinib): inactive: -0.034

Target: ELAVL1 isoform 2 (UniProt Q15717)
- log2 fold change [1]: inactive: 0.042
- log2 fold change (vorinostat): active: -0.326
- log2 fold change (silmitasertib): inactive: 0.059
- log2 fold change [2]: inactive: -0.051
- log2 fold change (entospletinib): inactive: 0

Target: EIF4G2 (UniProt P78344)
- log2 fold change [1]: inactive: 0.008
- log2 fold change (vorinostat): inactive: -0.184
- log2 fold change (silmitasertib): inactive: 0.019
- log2 fold change [2]: inactive: -0.085
- log2 fold change (entospletinib): inactive: -0.03

Target: EIF4B (UniProt P23588)
- log2 fold change [1]: inactive: 0.063
- log2 fold change (vorinostat): inactive: 0.135
- log2 fold change (silmitasertib): inactive: 0.004
- log2 fold change [2]: inactive: 0.013
- log2 fold change (entospletinib): inactive: -0.019

Target: EIF4A3 (UniProt P38919)
- log2 fold change [1]: inactive: 0.005
- log2 fold change (vorinostat): inactive: 0.011
- log2 fold change (silmitasertib): inactive: 0.038
- log2 fold change [2]: inactive: -0.004
- log2 fold change (entospletinib): inactive: 0.032

Target: EPB41 (UniProt P11171)
- log2 fold change [1]: inactive: -0.046
- log2 fold change (vorinostat): inactive: 0.035
- log2 fold change (silmitasertib): inactive: 0.007
- log2 fold change [2]: inactive: -0.034
- log2 fold change (entospletinib): inactive: 0

Target: EPHX2 (UniProt P34913)
- log2 fold change [1]: inactive: 0.002
- log2 fold change (vorinostat): active: 0.243
- log2 fold change (silmitasertib): inactive: 0.002
- log2 fold change [2]: inactive: -0.021
- log2 fold change (entospletinib): inactive: -0.058

Source: the supplement of paper PMC10849652
